Values of other authors as cited in US10829649B2, “Methods and coatings for protecting surfaces from bio-fouling species” (priority 2018, dated 2020).
At least one compound was matched to its structure with a doubt left.

Conditions: cited from earlier work

Compound	Scoville Heat Units (SHU)
COc1cc(CNC(=O)CCCCC/C=C/C(C)C)ccc1O [Homocapsaicin]	8.6 million
COc1cc(CNC(=O)CCCCCCCC(C)C)ccc1O [Homodihydrocapsaicin]	8.6 SHU
